# No constants are given. Whether binding was seen depends on the method and setting. Binding seen in cells or lysates may run through a third protein. Some binding calls cover weakened binding; strength is not graded here.
# Chains of the proteins cited; added tags and fusions are not shown. Residues count along the entry.
# UniProt P05928, residues 1-78: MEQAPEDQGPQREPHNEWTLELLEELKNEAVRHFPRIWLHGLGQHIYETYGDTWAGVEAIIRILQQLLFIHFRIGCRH
# Tests used:
# [1] = molecular target: HA-tagged HIV-1 Vpr (1-78) (HIV-1) (UniProt P05928); test: co-IP
# [2] = molecular target: HA-tagged HIV-1 Vpr (1-78) (HIV-1) (UniProt P05928); test: condition: only in the chromatin-bound fraction released by micrococcal nuclease; co-IP; anti-HA agarose beads, 2 h at 4C, on the chromatin-bound fraction released by micrococcal nuclease from Triton-insoluble material of transfected HeLa cells; with or without 25 ug/ml ethidium bromide
substance,measurement,setting,value
"VPRBP (Vpr-binding protein), endogenous in HeLa (from UniProt Q9Y4B6-1 1-1507)",binding,[1],binds
same,binding,[2],no binding

# Reference: PMC2932712, “Formation of Mobile Chromatin-Associated Nuclear Foci Containing HIV-1 Vpr and VPRBP Is Critical for the Induction of G2 Cell Cycle Arrest” (PLoS Pathogens, 2010)
